According to paper PMC8327419:
These are yes or no findings as the source states them, for the method shown. Binding seen in cells or lysates may run through a third protein. Some results given as binding are weak or reduced against the parent protein; the word gives no strength.

By UniProt entry, the sequences of proteins in these tests, tags left out.
UniProt Q9P286: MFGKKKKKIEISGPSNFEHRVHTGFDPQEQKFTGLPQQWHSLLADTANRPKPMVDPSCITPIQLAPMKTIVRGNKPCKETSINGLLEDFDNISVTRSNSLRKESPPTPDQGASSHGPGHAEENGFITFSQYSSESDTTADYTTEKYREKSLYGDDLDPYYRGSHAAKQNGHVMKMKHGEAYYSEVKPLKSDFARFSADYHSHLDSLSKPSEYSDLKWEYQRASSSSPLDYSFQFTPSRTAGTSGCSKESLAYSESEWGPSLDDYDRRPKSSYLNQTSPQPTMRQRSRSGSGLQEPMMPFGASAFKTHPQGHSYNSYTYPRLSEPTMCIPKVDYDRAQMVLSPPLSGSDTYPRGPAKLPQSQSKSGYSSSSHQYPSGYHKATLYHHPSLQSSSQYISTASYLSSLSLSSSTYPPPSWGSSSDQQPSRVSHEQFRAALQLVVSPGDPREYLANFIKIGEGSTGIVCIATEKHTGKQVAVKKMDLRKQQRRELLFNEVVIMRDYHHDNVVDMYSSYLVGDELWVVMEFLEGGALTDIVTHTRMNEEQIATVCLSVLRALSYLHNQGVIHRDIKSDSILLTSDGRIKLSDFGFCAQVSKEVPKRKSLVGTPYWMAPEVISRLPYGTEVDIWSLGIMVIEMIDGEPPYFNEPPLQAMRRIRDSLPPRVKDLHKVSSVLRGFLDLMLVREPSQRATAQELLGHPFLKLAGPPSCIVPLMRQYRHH
UniProt P35222: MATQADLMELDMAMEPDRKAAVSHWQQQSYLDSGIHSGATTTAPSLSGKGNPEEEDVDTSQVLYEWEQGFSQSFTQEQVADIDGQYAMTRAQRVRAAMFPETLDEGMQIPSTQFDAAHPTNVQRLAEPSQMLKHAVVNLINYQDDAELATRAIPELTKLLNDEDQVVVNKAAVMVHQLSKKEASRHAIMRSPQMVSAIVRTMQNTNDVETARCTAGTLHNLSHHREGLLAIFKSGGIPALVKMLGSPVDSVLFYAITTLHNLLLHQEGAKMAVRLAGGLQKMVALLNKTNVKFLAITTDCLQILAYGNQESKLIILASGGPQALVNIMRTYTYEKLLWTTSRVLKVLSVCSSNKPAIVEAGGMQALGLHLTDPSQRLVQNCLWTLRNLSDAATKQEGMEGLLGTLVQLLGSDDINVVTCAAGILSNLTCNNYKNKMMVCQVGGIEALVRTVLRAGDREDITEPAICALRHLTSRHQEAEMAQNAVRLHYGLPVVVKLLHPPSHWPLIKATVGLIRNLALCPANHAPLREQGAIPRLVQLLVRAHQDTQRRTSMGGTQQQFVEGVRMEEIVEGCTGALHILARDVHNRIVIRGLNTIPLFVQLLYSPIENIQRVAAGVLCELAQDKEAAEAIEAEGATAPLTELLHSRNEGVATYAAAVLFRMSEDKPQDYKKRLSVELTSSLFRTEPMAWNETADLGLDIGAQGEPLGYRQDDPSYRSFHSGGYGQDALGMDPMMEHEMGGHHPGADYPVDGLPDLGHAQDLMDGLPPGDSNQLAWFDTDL

Biological target: p21-Activated kinases 5 (PAK5) (human (endogenous in Hep3B)) (UniProt Q9P286)
Assay: co-IP; endogenous proteins; Hep3B and sorafenib-resistant Hep3B-SR cells lysed in IP lysis buffer with protease/phosphatase inhibitors; anti-PAK5 or mouse IgG overnight at 4 °C, Protein A/G beads, Western Blot

binding: binds
Substance: β-catenin (from UniProt P35222 1-781)
